What all share (type): cell-based
One assay relates to HepG2 cells. Put plainly: HepG2 assay (mammalian counterscreen, resazurin). The following applies: Homo sapiens, reference compound panel, mean (standard deviation), 72 h, read-out: HepG2 (potency, pEC50) (converted). An excerpt:
(§1) Compounds were dispensed into 384-well assay plates by acoustic dispensing (LabCyte ECHO). […] Potencies are reported as pEC50 (-LOG(EC50[M])). All data was processed using IDBS ActivityBase. Raw data was converted into percent inhibition through linear regression by setting the high inhibition control as 100% and the no inhibition control as 0%. For primary single concentration screening in the novel axenic assay we introduced a static control as 0% inhibition (signal at time of assay start), which is explained in more detail in the results section. […] The formula used for signal to background is: […] For compounds with low activity and poor definition of the curve top, B was fixed to 100. For the determination of the reference compound panel potency, all experiments were carried out with a minimum of three independent repeats. The assay conditions are described previously.

Assay [1] concerns eGFP expressing LdBOB amastigote-like cells in PMA differentiated THP-1 cells. Nature of the assay: Intramacrophage (intracellular, INMAC) assay. Conditions: Leishmania donovani, THP-1, 96 h; reference compound panel; mean (standard deviation), minimum three independent repeats; four day incubation; read-out: Intramacrophage (potency, pEC50) (converted). The protocol:
Compounds were dispensed into 384-well assay plates by acoustic dispensing (LabCyte ECHO). […] Potencies are reported as pEC50 (-LOG(EC50[M])).
All data was processed using IDBS ActivityBase. […] Potency plates were normalised to DMSO control (0% effect) and 2μM amphotericin B control (100% effect). […] For compounds with low activity and poor definition of the curve top, B was fixed to 100. For the determination of the reference compound panel potency, all experiments were carried out with a minimum of three independent repeats.
The assay conditions are described previously. Briefly PMA differentiated THP-1 cells were infected overnight with eGFP expressing LdBOB amastigote-like cells at a multiplicity of infection of 5. Next, any remaining free amastigote-like cells are removed and compounds are added. The microscopy-based read-out is done after a four day compound incubation.

The test system of assay [2] is LdBOB axenic amastigote-like cells. Put plainly: Novel (cidal) axenic amastigote assay, BacTiter-Glo read-out. Conditions: Leishmania donovani; read-out: Novel (axenic assay potency, pEC50) (converted).
Excerpt: as §1, with “Leishmania donovani BOB cells (LdBOB) used in this study are a cloned line from strain MHOM/SD/62/1S-CL2 [13]. Cultures were maintained as described previously. Compounds” for “Compounds”, “Test compounds were pre-dispensed into white 384 well plates (Corning). For library screens one compound per well was tested at the indicated final concentration. […] Plates were then sealed with clear film and relative luminescence was detected using a plate reader (Victor 3) from Perkin Elmer or PHERAstar FS from BMG LABTECH, with 0.5 s detection time per well).” for “The assay conditions are described previously.”

Consider `CN1CCC[C@@H]1CCO[C@](C)(c1ccccc1)c1ccc(Cl)cc1` [Clemastine], for which the EC50 in the assay on HepG2 cells was 21.9 µM; in assay [1], 15.8 µM; in assay [2], greater than 50.1 µM.

Source of the values: paper PMC4583543, “Development and Validation of a Novel Leishmania donovani Screening Cascade for High-Throughput Screening Using a Novel Axenic Assay with High Predictivity of Leishmanicidal Intracellular Activity” (PLoS Neglected Tropical Diseases, 2015).
